Experimental findings from article PMC10163288 are described below.

A word on the apparent Kd: it is the concentration giving half-maximal binding under the conditions of the assay.

B1: il10ra_site1_normal_mot_HHH_b1_01082_af2_000000031_0001_3_19_H_._HHH_b2_08025_0001_0000100013_0000001_0 (protein)
chain: SSSSSDLEEEVEELLEEARHIEDPEERYKVLKEAIEVASERGDPELFRLIMRFLEQVFRGSSSSS
B2: il10ra_site1_sap_26_mot_HHH_b2_06321_af2_000000133_0001_42_55_H_._HHH_b1_00003_af2_0001_0000400008_0000001_0_0001_af2pred_0001 (protein)
chain: SSSSSSEEEELEEFVEELVEKFKLSEEKKKALEYLARLLLELGASPEEVQRSLENAARLLSSSSS
B3: il10ra_site1_sap_8_mot_HHH_b1_06978_af2_000000172_0001_1_16_H_._HHH_b1_05317_af2_0001_0000100002_0000001_0_0001 (protein)
chain: SSSSSQEVYELLKEAIELLSEGNPEEAEKVLEEAEELAREENDMVLLVVIEFLERLIKRQSSSSS
B4: il10ra_site1_normal_mot_HHH_b2_00612_000000251_0001_1_14_H_._HHH_b2_04981_0001_0000400040_0000001_0_af2pred_0001 (protein)
chain: SSSSDEEFEEVRKLLEEASELAQRGDREEAERLVEEAIELAREGGNEQLTRSAEYLLELIRSSSS
B5: il10ra_site1_normal_mot_HHH_b2_04013_af2_000000040_0001_22_39_H_._HHH_b2_02292_af2_0001_0000200014_0000001_0 (protein)
chain: SSSSDEEEAEELVKEAEEELEKLLKRNAEEAFELLRRVIERLIELGNPEAARRLARFFVEVSSSS
B6: il10ra_site1_normal_mot_HHH_b2_04251_af2_000000037_0001_42_56_H_._HHH_b1_07770_0001_0000300015_0000002_0 (protein)
chain: SSSSSDEEVRELIEEAKELLERGDPEEALKVLQEASRLAIELADPELTRLVIEVARLLDSSSSSS
B7: il10ra_site1_sap_20_mot_HHH_b2_08144_af2_000000046_0001_38_52_H_._HHH_b2_04244_0001_0000400048_0000001_0_0001 (protein)
chain: SSSSSDLEEIWRLIREALELRANGNPEEAEKLVEEAKEIAEEAGDPALRFIVEALERAVRSSSSS
B8: il10ra_site1_normal_mot_HHH_b1_06994_000000193_0001_40_55_H_._HHH_b1_01501_0001_0000300017_0000002_0 (protein)
chain: SSSSDQLEELVRAALRFVEQAYEAGDPAWEHRVRALLQALRREGDEELVEEVEELLEKLRSSSSS
B9: il10ra_site1_normal_mot_HHH_b2_00943_af2_000000149_0001_1_17_H_._HHH_b1_08613_af2_0001_0000500010_0000002_0_af2pred_0001 (protein)
chain: SSSSSSEAKLLFEAIRLVAEVIKHGDPELEEEAEEFIREVIKKVKDPHAQEALEYLLENVSSSSS
B10: il10ra_site1_normal_mot_8756ee2cf497b5429c717dfc0c0bcfd6_0001_000000186_0001_1_13_H_._HHH_b1_01406_af2_0001_0000200006_0000002_0 (protein)
chain: SSSSSTQALELLREVVRLHAEGNPEEAEKLIEEAEKVAEEEGNDVILVQLEYLLRHIERSSSSSS
B11: il10ra_site1_normal_mot_HHH_b2_05323_000000159_0001_1_18_H_._HHH_b2_05518_af2_0001_0000100006_0000002_0 (protein)
chain: SSSSDEEQQELLELLRELFELALRGDEEEARRLAEELLELARELNDERVFRIVKDQQEVLSSSSS
B12: il10ra_site1_normal_mot_HHH_b1_07466_000000214_0001_1_19_H_._HHH_b1_01142_0001_0000100007_0000001_0 (protein)
chain: SSSSSDVEELEELVEELIEELDDPRDRRKLELTLRFARALLENGDPEAARRLLRAVLEALSSSSS
B13: il10ra_site1_normal_mot_HHH_b1_05937_af2_000000262_0001_20_37_H_._HHH_b1_08598_0001_0000200009_0000001_0 (protein)
chain: SSSSSSSDWLELVIEALRLLFKKRNAELLQELHRLAKEIARHGDPELEKELEEFLEEISSSSSSS
B14: il10ra_site1_sap_26_mot_674797ffa33fc4f31d963a7257083862_0001_000000202_0001_1_12_H_._HHH_b2_05362_0001_0000600049_0000001_0_0001 (protein)
chain: SSSSSEESEEFTEEVKEELERLLKEGDPDEAFKLLEEAIKFLLELGDDEAAHRLVELFQRTSSSS
B15: il10ra_site1_sap_16_mot_HHH_b1_03328_af2_000000129_0001_1_21_H_._963dea14d5f61e40fbb13539fee36e1a_0001_0001_0000100003_0000002_0_0001 (protein)
chain: SSSSDRAVEEIWRLLREALRIDDLEEARELVEEAQELAEERNNRVMRKVIEFLLEQLRRQSSSSS
B16: il10ra_site1_sap_8_mot_HHH_b2_03038_000000109_0001_1_20_H_._HHH_b1_05254_0001_0000400044_0000001_0_0001_af2pred_0001 (protein)
chain: SSSSSEEQERINELLREAAELLDEGDPEEARELVEEALELAEEAGSVVAAVAARFLLKLINSSSS
B17: il10ra_site1_sap_13_mot_8756ee2cf497b5429c717dfc0c0bcfd6_0001_000000186_0001_1_13_H_._HHH_b1_01047_0001_0000200013_0000001_0_0001 (protein)
chain: SSSSDEEERRVEELFEEAEELYEEGDPREAARVLQEAVRIALEAGNEELLQAIWRLVRELKSSSS
B18: il10ra_site1_normal_mot_HHH_b2_01999_000000006_0001_1_18_H_._HHH_b1_02372_0001_0000200023_0000001_0 (protein)
chain: SSSSDVEERASEVAIEVLRIAIRLSDPEVFQEVYELFRRIIREGDPELLEELEELLERLRSSSSS

Some of the results follow.

In this assay the target is il10ra, Q13651. Kind of assay: yeast display titration.
Take B1: the “apparent Kd” value is “inactive: no binding seen”. Regarding B2, the “apparent Kd” value was “inactive: no binding seen”. Take B3: the apparent Kd was inactive: > 3.36 µM. Regarding B4, the “apparent Kd” value was “inactive: no binding seen”. Regarding B5, the “apparent Kd” value was “inactive: no binding seen”. Consider B6, for which the “apparent Kd” value was “inactive: no binding seen”. Regarding B7, the “apparent Kd” value is “inactive: no binding seen”. Turning to B8, the “apparent Kd” value is “inactive: no binding seen”. Regarding B9, the “apparent Kd” value is “inactive: no binding seen”. For the molecule B10, the “apparent Kd” value was “inactive: no binding seen”. To B11 belongs “inactive: no binding seen”. B12: the “apparent Kd” value was “inactive: no binding seen”. For the molecule B13, the “apparent Kd” value was “inactive: no binding seen”. To B14 belongs “inactive: no binding seen”; to B15, “inactive: no binding seen”; to B16, “inactive: no binding seen”. Consider B17, for which the “apparent Kd” value is “inactive: no binding seen”. Take B18: the “apparent Kd” value was “inactive: no binding seen”.
